PMC3454408
No constants are given. Whether binding was seen depends on the method and setting. For some assays here: Binding seen in cells or lysates may run through a third protein. Some results given as binding are weak or reduced against the parent protein; the word gives no strength. Tags and fused reporters may be left off the sequences shown. Blank lines part the entries; values can stand above or below the binder they belong to.

Sequences of proteins named here, by UniProt entry; tags and fusion partners are left off.
UniProt P32639: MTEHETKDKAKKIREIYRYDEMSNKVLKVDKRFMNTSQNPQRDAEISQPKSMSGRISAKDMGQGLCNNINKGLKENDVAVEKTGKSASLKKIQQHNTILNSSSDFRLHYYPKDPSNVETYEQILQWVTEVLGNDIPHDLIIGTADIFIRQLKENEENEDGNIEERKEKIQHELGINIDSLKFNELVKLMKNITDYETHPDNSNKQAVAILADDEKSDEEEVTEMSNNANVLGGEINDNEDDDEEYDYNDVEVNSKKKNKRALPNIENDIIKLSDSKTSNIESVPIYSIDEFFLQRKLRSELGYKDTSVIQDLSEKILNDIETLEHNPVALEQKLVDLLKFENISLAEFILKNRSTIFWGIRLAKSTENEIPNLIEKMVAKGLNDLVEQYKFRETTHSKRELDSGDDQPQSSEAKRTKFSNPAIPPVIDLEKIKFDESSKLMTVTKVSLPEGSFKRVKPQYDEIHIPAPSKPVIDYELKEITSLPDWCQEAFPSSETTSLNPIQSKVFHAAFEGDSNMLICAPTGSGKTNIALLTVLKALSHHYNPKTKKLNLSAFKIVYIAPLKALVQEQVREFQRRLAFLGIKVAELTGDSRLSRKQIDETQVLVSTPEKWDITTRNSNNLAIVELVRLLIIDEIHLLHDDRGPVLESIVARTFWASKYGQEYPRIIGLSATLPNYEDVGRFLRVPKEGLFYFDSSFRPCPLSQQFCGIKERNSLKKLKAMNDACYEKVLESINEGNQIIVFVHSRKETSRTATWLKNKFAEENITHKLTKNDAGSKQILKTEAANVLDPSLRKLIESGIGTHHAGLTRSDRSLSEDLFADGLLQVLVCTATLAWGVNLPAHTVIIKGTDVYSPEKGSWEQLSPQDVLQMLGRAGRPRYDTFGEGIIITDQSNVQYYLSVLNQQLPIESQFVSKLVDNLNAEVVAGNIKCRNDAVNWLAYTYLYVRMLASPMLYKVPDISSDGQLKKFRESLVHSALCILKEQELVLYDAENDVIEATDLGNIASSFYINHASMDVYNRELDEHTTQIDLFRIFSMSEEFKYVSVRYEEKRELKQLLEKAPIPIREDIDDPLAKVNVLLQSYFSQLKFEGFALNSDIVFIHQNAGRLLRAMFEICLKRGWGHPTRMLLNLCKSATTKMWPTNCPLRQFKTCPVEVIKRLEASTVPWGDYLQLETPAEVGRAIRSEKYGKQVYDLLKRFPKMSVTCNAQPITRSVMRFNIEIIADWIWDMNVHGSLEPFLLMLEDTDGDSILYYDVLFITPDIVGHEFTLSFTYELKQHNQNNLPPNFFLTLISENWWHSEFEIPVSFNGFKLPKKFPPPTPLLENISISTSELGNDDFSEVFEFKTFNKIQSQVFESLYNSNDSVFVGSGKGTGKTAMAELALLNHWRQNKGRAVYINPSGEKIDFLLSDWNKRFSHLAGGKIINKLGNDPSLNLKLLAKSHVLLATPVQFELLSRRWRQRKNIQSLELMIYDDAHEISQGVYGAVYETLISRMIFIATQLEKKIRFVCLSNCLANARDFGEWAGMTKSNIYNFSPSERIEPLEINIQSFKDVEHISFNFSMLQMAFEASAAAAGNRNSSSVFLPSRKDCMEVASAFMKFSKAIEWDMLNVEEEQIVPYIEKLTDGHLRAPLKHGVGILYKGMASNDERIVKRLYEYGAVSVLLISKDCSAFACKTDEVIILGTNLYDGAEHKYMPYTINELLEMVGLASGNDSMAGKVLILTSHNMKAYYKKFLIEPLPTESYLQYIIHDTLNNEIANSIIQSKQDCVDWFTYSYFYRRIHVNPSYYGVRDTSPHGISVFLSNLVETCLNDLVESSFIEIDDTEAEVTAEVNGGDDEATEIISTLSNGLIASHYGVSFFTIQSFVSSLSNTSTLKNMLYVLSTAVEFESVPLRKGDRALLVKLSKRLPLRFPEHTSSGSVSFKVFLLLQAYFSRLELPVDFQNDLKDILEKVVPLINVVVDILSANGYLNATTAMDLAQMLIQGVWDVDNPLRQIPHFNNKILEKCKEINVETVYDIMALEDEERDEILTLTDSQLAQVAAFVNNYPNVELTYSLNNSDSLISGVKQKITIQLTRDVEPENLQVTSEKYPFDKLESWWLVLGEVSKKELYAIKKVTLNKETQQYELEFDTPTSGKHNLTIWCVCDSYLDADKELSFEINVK

Assays:
[1] = molecular target: Brr2p (yeast two-hybrid fusion) (S. cerevisiae) (UniProt P32639); assay: two-hybrid; yeast two-hybrid assay of Cwc24p with spliceosome proteins; data not shown
[2] = molecular target: TAP-Brr2p (S. cerevisiae) (UniProt P32639); assay: pull-down; TAP-Brr2p from yeast extract immobilised on IgG-sepharose (2 h, 4°C), washed 4 times with AGK + 400 mM KCl, incubated with purified His-Cwc24 for 2 h at 4°C, washed 3 times with AGK (10 mM HEPES pH 7.9, 1.5 mM MgCl2, 200 mM KCl, 10% glycerol, 0.5 mM DTT); western blot with anti-his antibody; only the binder purified

binding [1]: binds
B1: Cwc24p (yeast two-hybrid fusion) (protein, UniProt P53769 1-259)
chain: MFRKRLVNKSSSDEKNQKKRQKINFSEEKLVASDEEKGSSDLMSLAKSGNSRTLQLSHENEGKLQKKGEDLDKYTLTVNDDSTKEDLLNFERKELAEKAKKRRPSDDNELVLNMSGKNKRLTKQINQPTNIRTTVLMDFQPDVCKDYKQTGYCGYGDSCKFLHSRDDFKTGWKLNQEWNADKEDSKAVTLDLEKIPFKCTLCKEDYKSPVVTNCGHYFCGSCFAKDMKKGTKCFICHKETHGSAKVASDLQKMLNKRKS

binding [2]: binds
B2: His-Cwc24p (protein, UniProt P53769 1-259)
chain: B1 chain
